{"source": "patent US6559289B1", "about": "“Use of growth hormone or analogues thereof for the treatment of mammals with familial hypercholesterolemia” (Salhtech I Goteborg AB, priority 1998, dated 2003)", "test_system": "LDLRKO mice", "assay": "Cholestyramine, atorvastatin and GH alone and in combination: plasma cholesterol and triglycerides", "format": "in vivo", "conditions": "6 days of treatment", "excerpt": "The studies were approved by the Institutional Animal Care and Use Committee, Sweden. Altogether 75 male LDLRKO and 45 C57 BL/6J mice were purchased from Bommice, Denmark. Animals were housed under standardized conditions in groups of ten. The mice had free access to water and chow; the light cycle hours were between 6 a.m. and 6:00 p.m. At the start of the experiment, osmotic mini pumps containing GH were implanted subcutaneously under light ether anesthesia. Non-GH treated animals were sham-operated. Recombinant human GH (Genotropin®), purchased from Pharmacia & Upjohn, was infused at a rate of 1.0 mg/kg per day. After six days of infusion, animals where anesthetized with ether, and blood was collected from the eye. The mice where thereafter killed by cervical dislocation. The livers were immediately removed and when indicated, 1 g of liver was taken for subsequent preparation of microsomes for assay of enzyme activity as described below. The remaining liver was immediately frozen in liquid nitrogen and stored at −70° C.\nIn the experiment comparing the effects of cholestyramine, atorvastatin, GH, and combinations thereof, animals were bled from the eye under light ether anesthesia and were not killed. […]\nThe total hepatic cholesterol was determined, following extraction and subsequent drying under nitrogen from liver samples, as described (Rudling M. J. Lipid Res. 33: 493-50 1992). […]", "data": [{"compound": "CC(C)c1c(C(=O)Nc2ccccc2)c(-c2ccccc2)c(-c2ccc(F)cc2)n1CC[C@@H](O)C[C@@H](O)CC(=O)O", "note": "[atorvastatin]", "values": [{"measurement": "effect on plasma cholesterol (in words)", "setting": "drug alone", "value": "no effects"}, {"measurement": "reduction of plasma triglycerides", "setting": "groups of 5", "value": "approx. 20%"}]}]}
